The supplement of paper PMC10849652
Some of the results follow.

The chains behind the UniProt entries cited, without tags or fusion partners. Where a name states a change or a piece, a line headed by the entry shows the natural chain unless it says otherwise.
UniProt Q9HAV0, whole entry, looked up: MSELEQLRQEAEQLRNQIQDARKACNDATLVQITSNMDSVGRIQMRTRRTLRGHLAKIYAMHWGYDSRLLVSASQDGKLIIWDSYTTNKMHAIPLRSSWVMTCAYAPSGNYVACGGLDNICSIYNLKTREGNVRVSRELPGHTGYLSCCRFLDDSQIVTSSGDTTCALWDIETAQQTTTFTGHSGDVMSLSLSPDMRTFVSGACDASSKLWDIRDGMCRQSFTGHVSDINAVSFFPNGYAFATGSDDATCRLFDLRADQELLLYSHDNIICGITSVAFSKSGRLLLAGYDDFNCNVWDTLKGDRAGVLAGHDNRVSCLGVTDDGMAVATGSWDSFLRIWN
UniProt Q9BXV9: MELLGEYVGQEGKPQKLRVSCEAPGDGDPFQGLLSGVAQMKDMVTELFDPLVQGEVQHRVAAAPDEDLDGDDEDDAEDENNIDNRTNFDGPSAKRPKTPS
UniProt Q9H4G4: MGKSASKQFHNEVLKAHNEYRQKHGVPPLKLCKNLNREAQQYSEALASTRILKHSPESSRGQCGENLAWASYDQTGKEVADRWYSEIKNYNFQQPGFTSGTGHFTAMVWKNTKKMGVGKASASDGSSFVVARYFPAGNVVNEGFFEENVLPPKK
UniProt Q9NWU2, whole entry, looked up: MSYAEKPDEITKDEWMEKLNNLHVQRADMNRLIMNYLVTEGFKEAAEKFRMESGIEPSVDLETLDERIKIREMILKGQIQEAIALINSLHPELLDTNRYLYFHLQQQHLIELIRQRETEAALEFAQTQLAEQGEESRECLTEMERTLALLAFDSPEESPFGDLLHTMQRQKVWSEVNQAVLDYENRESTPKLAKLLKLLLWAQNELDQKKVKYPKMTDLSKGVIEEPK
UniProt Q9H4A6: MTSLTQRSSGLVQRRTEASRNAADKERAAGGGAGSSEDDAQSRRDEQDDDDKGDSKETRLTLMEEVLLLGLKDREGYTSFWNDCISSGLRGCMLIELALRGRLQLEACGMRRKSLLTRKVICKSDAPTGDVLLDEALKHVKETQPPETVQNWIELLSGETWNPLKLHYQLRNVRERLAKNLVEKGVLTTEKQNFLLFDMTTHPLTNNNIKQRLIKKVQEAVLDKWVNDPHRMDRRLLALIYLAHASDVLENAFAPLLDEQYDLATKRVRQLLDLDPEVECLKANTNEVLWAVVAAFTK
UniProt Q53EU6: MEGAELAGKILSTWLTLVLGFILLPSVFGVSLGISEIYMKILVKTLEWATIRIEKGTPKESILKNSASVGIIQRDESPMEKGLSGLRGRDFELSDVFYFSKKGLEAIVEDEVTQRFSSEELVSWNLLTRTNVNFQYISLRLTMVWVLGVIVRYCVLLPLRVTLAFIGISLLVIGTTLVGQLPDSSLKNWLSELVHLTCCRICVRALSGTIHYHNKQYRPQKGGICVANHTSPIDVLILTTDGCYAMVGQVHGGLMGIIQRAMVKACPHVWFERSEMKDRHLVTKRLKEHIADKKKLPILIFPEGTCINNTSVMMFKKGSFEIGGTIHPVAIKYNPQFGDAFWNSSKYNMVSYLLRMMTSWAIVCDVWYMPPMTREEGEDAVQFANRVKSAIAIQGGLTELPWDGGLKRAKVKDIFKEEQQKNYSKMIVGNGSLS
UniProt P19440: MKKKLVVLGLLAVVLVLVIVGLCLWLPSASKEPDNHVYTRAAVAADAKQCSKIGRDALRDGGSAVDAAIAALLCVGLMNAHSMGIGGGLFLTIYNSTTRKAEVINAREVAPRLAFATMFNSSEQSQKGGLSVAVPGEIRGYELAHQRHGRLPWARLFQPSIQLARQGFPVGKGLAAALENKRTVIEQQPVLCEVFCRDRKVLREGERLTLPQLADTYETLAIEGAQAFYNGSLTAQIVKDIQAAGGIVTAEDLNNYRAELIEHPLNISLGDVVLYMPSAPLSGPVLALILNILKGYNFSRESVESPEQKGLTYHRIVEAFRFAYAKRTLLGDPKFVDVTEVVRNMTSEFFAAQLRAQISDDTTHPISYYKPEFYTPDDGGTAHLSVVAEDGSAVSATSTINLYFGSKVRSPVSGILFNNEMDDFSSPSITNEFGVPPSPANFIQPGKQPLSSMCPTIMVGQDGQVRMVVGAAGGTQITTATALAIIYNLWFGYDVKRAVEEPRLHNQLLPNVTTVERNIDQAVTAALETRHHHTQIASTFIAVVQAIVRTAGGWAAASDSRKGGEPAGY
UniProt P08754, whole entry, looked up: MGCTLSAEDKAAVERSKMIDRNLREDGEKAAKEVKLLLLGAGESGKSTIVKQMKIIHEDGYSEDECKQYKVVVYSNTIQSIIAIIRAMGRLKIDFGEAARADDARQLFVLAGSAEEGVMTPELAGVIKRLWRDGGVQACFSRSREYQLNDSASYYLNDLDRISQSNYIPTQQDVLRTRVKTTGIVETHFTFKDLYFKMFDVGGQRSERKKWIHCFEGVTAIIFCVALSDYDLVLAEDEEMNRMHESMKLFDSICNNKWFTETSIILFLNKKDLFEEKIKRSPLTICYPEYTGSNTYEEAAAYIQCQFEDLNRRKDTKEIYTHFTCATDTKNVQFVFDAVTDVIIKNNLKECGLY
UniProt P15586: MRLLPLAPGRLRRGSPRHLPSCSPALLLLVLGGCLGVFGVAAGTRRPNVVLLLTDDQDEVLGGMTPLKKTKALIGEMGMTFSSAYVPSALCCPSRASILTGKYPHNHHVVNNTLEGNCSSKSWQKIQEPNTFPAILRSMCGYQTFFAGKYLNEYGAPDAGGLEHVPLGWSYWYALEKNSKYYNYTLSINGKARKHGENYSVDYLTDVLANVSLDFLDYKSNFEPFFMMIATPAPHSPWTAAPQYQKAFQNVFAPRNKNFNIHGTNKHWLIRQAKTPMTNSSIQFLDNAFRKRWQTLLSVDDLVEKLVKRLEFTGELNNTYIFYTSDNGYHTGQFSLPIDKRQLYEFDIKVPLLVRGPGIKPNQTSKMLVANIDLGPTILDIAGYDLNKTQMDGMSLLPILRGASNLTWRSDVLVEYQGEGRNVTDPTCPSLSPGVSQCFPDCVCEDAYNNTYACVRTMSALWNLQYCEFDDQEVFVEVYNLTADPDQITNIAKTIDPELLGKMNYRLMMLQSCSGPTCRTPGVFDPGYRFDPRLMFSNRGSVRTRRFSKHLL
UniProt Q9Y248: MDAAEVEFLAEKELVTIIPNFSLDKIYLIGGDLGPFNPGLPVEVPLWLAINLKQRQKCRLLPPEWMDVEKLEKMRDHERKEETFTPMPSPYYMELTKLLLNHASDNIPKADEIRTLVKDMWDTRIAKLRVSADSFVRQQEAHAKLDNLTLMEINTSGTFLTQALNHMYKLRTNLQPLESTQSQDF
UniProt O00461: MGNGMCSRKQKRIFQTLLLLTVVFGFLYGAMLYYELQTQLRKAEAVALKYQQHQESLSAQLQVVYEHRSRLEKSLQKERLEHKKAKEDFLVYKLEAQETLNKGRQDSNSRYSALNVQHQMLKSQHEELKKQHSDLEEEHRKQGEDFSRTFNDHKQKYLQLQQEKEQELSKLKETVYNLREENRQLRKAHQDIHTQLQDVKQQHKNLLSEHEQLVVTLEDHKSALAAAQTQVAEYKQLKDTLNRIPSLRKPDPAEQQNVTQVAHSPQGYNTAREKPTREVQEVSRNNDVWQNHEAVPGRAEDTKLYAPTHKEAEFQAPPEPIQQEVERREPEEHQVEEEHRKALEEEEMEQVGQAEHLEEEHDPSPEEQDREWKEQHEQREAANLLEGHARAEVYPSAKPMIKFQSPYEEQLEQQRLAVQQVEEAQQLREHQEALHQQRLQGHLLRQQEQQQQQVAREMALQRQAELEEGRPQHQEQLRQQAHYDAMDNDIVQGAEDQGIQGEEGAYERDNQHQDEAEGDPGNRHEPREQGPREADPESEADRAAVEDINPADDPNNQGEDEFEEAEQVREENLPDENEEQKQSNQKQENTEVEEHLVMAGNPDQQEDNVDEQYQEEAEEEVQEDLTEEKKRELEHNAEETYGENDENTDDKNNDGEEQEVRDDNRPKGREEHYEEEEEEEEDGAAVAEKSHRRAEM
UniProt P38435: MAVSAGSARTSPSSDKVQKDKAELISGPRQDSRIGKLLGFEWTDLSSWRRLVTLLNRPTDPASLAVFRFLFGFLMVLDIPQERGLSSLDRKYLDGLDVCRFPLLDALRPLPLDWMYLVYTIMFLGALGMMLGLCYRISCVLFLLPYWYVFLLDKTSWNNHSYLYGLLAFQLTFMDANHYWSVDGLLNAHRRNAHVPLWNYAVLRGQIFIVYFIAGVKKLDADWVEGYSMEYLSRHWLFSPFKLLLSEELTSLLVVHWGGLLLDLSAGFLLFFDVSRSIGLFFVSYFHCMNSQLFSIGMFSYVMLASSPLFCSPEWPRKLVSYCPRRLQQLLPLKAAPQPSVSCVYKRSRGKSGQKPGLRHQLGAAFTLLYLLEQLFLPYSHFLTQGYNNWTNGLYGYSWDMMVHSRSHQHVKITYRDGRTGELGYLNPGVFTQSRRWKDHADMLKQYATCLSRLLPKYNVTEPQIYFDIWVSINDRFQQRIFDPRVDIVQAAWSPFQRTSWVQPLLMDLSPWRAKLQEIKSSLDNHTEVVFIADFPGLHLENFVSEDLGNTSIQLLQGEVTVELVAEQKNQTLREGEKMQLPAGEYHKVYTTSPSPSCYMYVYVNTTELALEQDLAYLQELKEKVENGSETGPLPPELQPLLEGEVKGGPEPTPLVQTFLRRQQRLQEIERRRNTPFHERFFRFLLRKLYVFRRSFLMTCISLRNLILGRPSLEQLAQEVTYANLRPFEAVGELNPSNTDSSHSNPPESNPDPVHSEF
UniProt Q9H3K2: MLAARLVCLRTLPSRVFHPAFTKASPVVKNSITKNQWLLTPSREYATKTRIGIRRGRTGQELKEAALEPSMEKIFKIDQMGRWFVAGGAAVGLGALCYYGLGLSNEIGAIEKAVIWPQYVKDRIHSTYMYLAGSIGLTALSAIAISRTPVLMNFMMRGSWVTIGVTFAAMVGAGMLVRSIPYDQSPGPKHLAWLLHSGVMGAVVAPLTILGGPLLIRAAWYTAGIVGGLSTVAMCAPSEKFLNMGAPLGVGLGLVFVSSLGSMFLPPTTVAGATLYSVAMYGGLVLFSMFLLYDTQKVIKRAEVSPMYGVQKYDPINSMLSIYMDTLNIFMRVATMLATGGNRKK
UniProt P49448: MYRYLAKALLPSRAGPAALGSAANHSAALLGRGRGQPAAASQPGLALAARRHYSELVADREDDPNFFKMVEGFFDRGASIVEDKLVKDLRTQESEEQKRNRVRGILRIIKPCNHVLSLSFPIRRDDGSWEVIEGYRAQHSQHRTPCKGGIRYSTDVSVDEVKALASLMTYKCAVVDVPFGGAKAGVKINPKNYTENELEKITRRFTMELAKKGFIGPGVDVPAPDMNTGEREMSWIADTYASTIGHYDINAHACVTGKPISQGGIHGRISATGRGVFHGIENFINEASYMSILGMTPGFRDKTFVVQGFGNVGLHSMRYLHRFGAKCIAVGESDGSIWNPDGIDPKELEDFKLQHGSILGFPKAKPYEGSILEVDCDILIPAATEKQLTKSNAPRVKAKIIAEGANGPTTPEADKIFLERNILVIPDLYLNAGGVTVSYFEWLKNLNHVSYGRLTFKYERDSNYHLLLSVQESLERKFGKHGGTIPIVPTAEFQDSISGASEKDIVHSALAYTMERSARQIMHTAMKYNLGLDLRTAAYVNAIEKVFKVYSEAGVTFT
UniProt O94925: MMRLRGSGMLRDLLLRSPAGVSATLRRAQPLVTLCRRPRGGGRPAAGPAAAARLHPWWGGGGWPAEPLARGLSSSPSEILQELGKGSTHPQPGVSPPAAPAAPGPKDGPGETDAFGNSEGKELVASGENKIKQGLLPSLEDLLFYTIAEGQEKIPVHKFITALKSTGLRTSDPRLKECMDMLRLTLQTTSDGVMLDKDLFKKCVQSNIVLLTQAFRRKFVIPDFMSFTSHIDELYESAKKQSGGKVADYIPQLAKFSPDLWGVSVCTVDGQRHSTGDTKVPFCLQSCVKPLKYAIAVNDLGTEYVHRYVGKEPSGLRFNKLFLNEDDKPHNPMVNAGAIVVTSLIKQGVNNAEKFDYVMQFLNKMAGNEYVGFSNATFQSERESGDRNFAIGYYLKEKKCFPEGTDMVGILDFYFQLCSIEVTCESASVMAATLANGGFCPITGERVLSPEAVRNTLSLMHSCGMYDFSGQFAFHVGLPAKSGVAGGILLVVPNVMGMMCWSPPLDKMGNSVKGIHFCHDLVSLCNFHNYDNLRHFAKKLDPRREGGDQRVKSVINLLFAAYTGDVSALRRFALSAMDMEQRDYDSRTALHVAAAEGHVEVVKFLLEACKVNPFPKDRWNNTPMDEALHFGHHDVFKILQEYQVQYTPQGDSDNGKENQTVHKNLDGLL
UniProt Q8IXQ4: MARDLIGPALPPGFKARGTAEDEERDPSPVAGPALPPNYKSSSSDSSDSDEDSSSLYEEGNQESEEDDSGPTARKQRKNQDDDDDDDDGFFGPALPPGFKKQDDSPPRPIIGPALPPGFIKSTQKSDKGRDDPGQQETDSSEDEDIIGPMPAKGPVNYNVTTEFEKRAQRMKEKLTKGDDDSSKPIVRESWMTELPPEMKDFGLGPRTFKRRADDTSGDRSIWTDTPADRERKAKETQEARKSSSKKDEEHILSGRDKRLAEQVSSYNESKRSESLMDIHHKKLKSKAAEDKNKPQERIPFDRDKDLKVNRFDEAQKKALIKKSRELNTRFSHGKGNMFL

How the values were obtained:
Assay in all cases: log2 fold change, soluble protein after heating vs DMSO (PISA); higher = thermal stabilisation; K562 lysate, 10 uM; active = over 0.2 and 3.5 SD of the protein, either way, in both replicates (recomputed)
nilotinib = compound: Cc1cn(-c2cc(NC(=O)c3ccc(C)c(Nc4nccc(-c5cccnc5)n4)c3)cc(C(F)(F)F)c2)cn1 [nilotinib]
Outline: (§1)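 Thermal stability, expressed as log-two fold change relative to solvent controls, is given from duplicates. Crude K562 extract in PBS pH 7.4 with 1 mM MgCl2, at 1 mg/mL protein, was treated with 10 μM compound for 30 min and heated in aliquots for 3 min across 48°C-58°C. After pooling, adjustment to 0.5% NP-40 at 4°C and centrifugation at 21,000xg for 90 min, supernatant protein was measured by TMTpro 16plex LC-MS/MS with channel sums equalised.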

[1] = compound: Cc1nc(Nc2n[nH]c3c2CN(C(=O)N[C@H](CN(C)C)c2ccccc2)C3(C)C)c2sccc2n1
Outline: as §1

dasatinib = compound: Cc1nc(Nc2ncc(C(=O)Nc3c(C)cccc3Cl)s2)cc(N2CCN(CCO)CC2)n1 [dasatinib]
Outline: as §1

[2] = compound: Cc1ncc(-c2ccnc(Nc3ccc(S(C)(=O)=O)cc3)n2)n1C(C)C
Outline: as §1

[3] = compound: Cn1cc(-c2ccc3c(c2)CCN3C(=O)Cc2cccc(C(F)(F)F)c2)c2c(N)ncnc21
Outline: as §1

quisinostat = compound: Cn1cc(CNCC2CCN(c3ncc(C(=O)NO)cn3)CC2)c2ccccc21 [quisinostat]
Outline: as §1

tipifarnib = compound: Cn1cncc1[C@@](N)(c1ccc(Cl)cc1)c1ccc2c(c1)c(-c1cccc(Cl)c1)cc(=O)n2C [tipifarnib]
Outline: as §1

[4] = compound: NC(=O)Nc1cc(-c2cccc(F)c2)sc1C(=O)N[C@H]1CCCNC1
Outline: as §1

[5] = compound: NC(=O)c1cnc(N[C@@H]2CCCC[C@@H]2N)nc1Nc1cccc(-n2nccn2)c1
Outline: as §1

[6] = compound: NC1(c2ccc(-c3nc4ccn5c(=O)[nH]nc5c4cc3-c3ccccc3)cc2)CCC1
Outline: as §1

Measured: log2 fold change

GOSR1 (UniProt E9PCW1)
inactive: nilotinib -0.001 | [1] 0.001 | dasatinib -0.115 | [2] 0.128 | [3] -0.066 | quisinostat 0.096 | tipifarnib -0.183 | [4] -0.038

GID4 (UniProt Q8IVV7)
inactive: nilotinib 0.021 | [1] 0.035 | dasatinib 0.063 | [2] 0.08 | [3] 0 | quisinostat 0.02 | tipifarnib 0.001 | [4] 0.025 | [5] 0.016 | [6] 0.015

GORASP1 (UniProt Q9BQQ3)
inactive: nilotinib 0.011 | [1] -0.02 | dasatinib -0.019 | [2] 0.034 | [3] 0.048 | quisinostat 0.034 | tipifarnib -0.006 | [4] -0.071 | [5] 0.177 | [6] -0.11

GLOD4 isoform 2 (UniProt Q9HC38)
inactive: nilotinib -0.033 | [1] 0 | dasatinib 0.004 | [2] 0.006 | [3] 0 | quisinostat 0.029 | tipifarnib 0.036 | [4] -0.019 | [5] 0.015 | [6] 0.017

GPNMB (UniProt Q14956)
inactive: nilotinib 0.212 | [1] -0.073 | dasatinib 0.068 | [2] 0.445 | [3] -0.405 | quisinostat -0.758 | tipifarnib 0.029 | [4] 0.362 | [5] 0.016

GNB4 (UniProt Q9HAV0)
inactive: nilotinib -0.083 | [1] 0.055 | dasatinib 0.048 | [2] 0.127 | [3] -0.097 | quisinostat 0.042 | tipifarnib 0.048 | [4] -0.172 | [5] 0.028 | [6] 0.007

GON7 (UniProt Q9BXV9)
inactive: nilotinib 0.004 | [1] 0.087 | dasatinib -0.007 | [2] 0.083 | [3] 0.015 | quisinostat 0.049 | tipifarnib 0.051 | [4] -0.109 | [5] -0.01 | [6] -0.031

Reprinted from the results shown (2 entries):
GID4 (UniProt Q8IVV7)
inactive: nilotinib 0.021 | [1] 0.035 | dasatinib 0.063 | [2] 0.08 | [3] 0 | quisinostat 0.02 | tipifarnib 0.001 | [4] 0.025 | [5] 0.016 | [6] 0.015

GORASP1 (UniProt Q9BQQ3)
inactive: nilotinib 0.011 | [1] -0.02 | dasatinib -0.019 | [2] 0.034 | [3] 0.048 | quisinostat 0.034 | tipifarnib -0.006 | [4] -0.071 | [5] 0.177 | [6] -0.11

Remaining list, next part

GLIPR2 (UniProt Q9H4G4)
inactive: nilotinib -0.079 | [1] 0.183 | dasatinib -0.001 | [2] 0.051 | [3] 0.042 | quisinostat 0.026 | tipifarnib -0.056 | [4] -0.018 | [5] 0.02 | [6] 0.057

GID8 (UniProt Q9NWU2)
inactive: nilotinib 0.021 | [1] 0.015 | dasatinib -0.032 | [2] 0.055 | [3] 0 | quisinostat -0.06 | tipifarnib -0.025 | [4] -0.001 | [5] 0.008 | [6] -0.037

GOT1 (UniProt P17174)
inactive: nilotinib 0.038 | [1] -0.015 | dasatinib 0.012 | [2] 0.004 | [3] -0.003 | quisinostat 0.025 | tipifarnib 0.025 | [4] -0.03 | [5] 0.003 | [6] 0.025

GOLPH3 (UniProt Q9H4A6)
inactive: nilotinib -0.008 | [1] 0.008 | dasatinib -0.071 | [2] 0.044 | [3] -0.013 | quisinostat -0.065 | tipifarnib -0.039 | [4] 0.012 | [5] -0.023 | [6] -0.02

GLCE (UniProt O94923)
inactive: nilotinib -0.035 | [1] 0.076 | dasatinib -0.033 | [2] -0.042 | [3] -0.104 | quisinostat -0.04 | tipifarnib 0.025 | [4] 0.021 | [5] 0.054 | [6] -0.002

GPAT3 (UniProt Q53EU6)
inactive: nilotinib -0.038 | [1] 0.058 | dasatinib -0.08 | [2] 0.018 | [3] 0.034 | quisinostat 0 | tipifarnib -0.018 | [4] 0.007 | [5] 0.019 | [6] 0.004

GIGYF2 (UniProt Q6Y7W6)
inactive: nilotinib 0.004 | [1] -0.03 | dasatinib 0.006 | [2] 0.007 | [3] 0.024 | quisinostat -0.011 | tipifarnib -0.09 | [4] 0.026 | [5] 0.007 | [6] -0.04

GGT1 (UniProt P19440)
inactive: nilotinib -0.016 | [1] 0.038 | dasatinib 0.072 | [2] -0.028 | [3] 0.023 | quisinostat 0.065 | tipifarnib 0.111 | [4] 0.017 | [5] 0.007 | [6] 0.006

GNAI3 (UniProt P08754)
inactive: nilotinib -0.006 | [1] -0.004 | dasatinib 0.105 | [2] 0.028 | [3] 0.018 | quisinostat -0.055 | tipifarnib 0.068 | [4] 0.011 | [5] 0.03 | [6] -0.001

GNS (UniProt P15586)
inactive: nilotinib 0.012 | [1] -0.011 | dasatinib 0.008 | [2] -0.06 | [3] 0.003 | quisinostat 0.007 | tipifarnib 0.036 | [4] 0.005 | [5] 0.004 | [6] 0.006

GOLGA4 isoform 5 (UniProt Q13439)
inactive: nilotinib -0.02 | [1] 0.003 | dasatinib -0.018 | [2] -0.005 | [3] -0.01 | quisinostat -0.052 | tipifarnib 0.004 | [4] 0.02 | [5] 0.009 | [6] -0.008

GPRIN1 (UniProt Q7Z2K8)
inactive: nilotinib -0.03 | [1] -0.016 | dasatinib 0.018 | [2] 0.035 | [3] 0.03 | quisinostat -0.021 | tipifarnib -0.035 | [4] -0.009 | [5] 0 | [6] -0.021

GOLGA6B (UniProt A6NDN3)
inactive: nilotinib 0.039 | [1] -0.102 | dasatinib 0.009 | [2] -0.075 | [3] 0.161 | quisinostat -0.355 | tipifarnib 0.051 | [4] 0.106 | [5] -0.008 | [6] -0.082

GNL2 (UniProt Q13823)
inactive: nilotinib -0.001 | [1] 0.017 | dasatinib 0.029 | [2] -0.04 | [3] 0.003 | quisinostat -0.025 | tipifarnib -0.007 | [4] 0.039 | [5] 0.053 | [6] -0.01

GINS2 (UniProt Q9Y248)
inactive: nilotinib -0.005 | [1] -0.025 | dasatinib 0.009 | [2] 0.004 | [3] 0.01 | quisinostat 0 | tipifarnib 0.03 | [4] -0.022 | [5] -0.057 | [6] -0.019

GNA13 (UniProt Q14344)
inactive: nilotinib 0.007 | [1] -0.01 | dasatinib -0.002 | [2] -0.031 | [3] 0.02 | quisinostat -0.008 | tipifarnib 0.045 | [4] 0.021 | [5] -0.003 | [6] -0.013

GOLIM4 (UniProt O00461)
inactive: nilotinib 0.058 | [1] -0.058 | dasatinib -0.004 | [2] -0.046 | [3] -0.024 | quisinostat 0.061 | tipifarnib 0.03 | [4] -0.029 | [5] 0.005 | [6] -0.011

GGCX (UniProt P38435)
inactive: nilotinib -0.003 | [1] 0.025 | dasatinib 0.004 | [2] -0.01 | [3] -0.12 | quisinostat 0.03 | tipifarnib -0.026 | [4] 0.008 | [5] 0.033 | [6] 0.003

GHITM (UniProt Q9H3K2)
inactive: nilotinib 0.017 | [1] -0.004 | dasatinib 0.008 | [2] 0.005 | [3] -0.011 | quisinostat -0.01 | tipifarnib -0.007 | [4] 0.015 | [5] -0.017 | [6] 0.002

GLUD2 (UniProt P49448)
inactive: nilotinib 0.053 | [1] -0.067 | dasatinib 0.013 | [2] -0.003 | [3] -0.017 | quisinostat 0.039 | tipifarnib 0.047 | [4] 0.015 | [5] 0.012 | [6] -0.004

GLS isoform 3 (UniProt O94925)
inactive: nilotinib 0.005 | [1] 0.007 | dasatinib 0.087 | [2] -0.002 | [3] -0.006 | quisinostat -0.044 | tipifarnib -0.002 | [4] 0.092 | [5] 0.031 | [6] -0.033

GPALPP1 (UniProt Q8IXQ4)
inactive: nilotinib -0.05 | [1] -0.013 | dasatinib 0.041 | [2] 0.049 | [3] -0.042 | quisinostat 0.013 | tipifarnib 0.022 | [4] 0 | [5] -0.009 | [6] -0.002

GIT2 (UniProt Q14161)
inactive: nilotinib -0.046 | [1] 0.057 | dasatinib 0.014 | [2] 0.01 | [3] 0.004 | quisinostat -0.067 | tipifarnib -0.045 | [4] -0.005 | [5] -0.066 | [6] 0.016
